Results published in PubChem BioAssay AID1259415 (National Center for Advancing Translational Sciences (NCATS), 2018).
Among all 410,000 compounds or so, about 18,000 (4.4%) were called active. Inconclusive results, whose numbers are uncertain, are shown with a selection of clear calls. Rule as the data show it: active = activity change below about -60%; inconclusive = no clear call, values can overlap the other calls; inactive = above about -39%.

experiment: qHTS Assay for inhibitors of the human cytomegalovirus (HCMV); details: HFF cells, HCMV-luciferase reporter, 72 h; at 57.5 µM; stronger effect = lower value
How it was run: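 Human foreskin fibroblasts infected with luciferase-reporter HCMV at MOI 1 PFU/cell, compounds at two doses. Luciferase measured 72 h post infection; normalized to buffer-only basal and Salinomycin (10uM) controls.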
% is scaled to controls: 0 for no effect and ±100 for the full control effect.

Row | SMILES | activity change, negative = inhibition
1 | COc1ccc(OCC(=O)N/N=C(\C)c2cc3ccccc3o2)cc1 | inactive: 4.73%
2 | COc1ccc(C(C)(C)C)cc1NC(=O)c1[nH]c(C)c(C(C)=O)c1C | inactive: 9.33%
3 | O=C(Cn1cnnn1)NC1CCCN(Cc2ccccc2F)C1 (stereo not given) | inconclusive: -44.1%
4 | O=S(=O)(NCc1nc2cccnc2n1Cc1ccc(F)cc1)c1ccc(Cl)s1 | inconclusive: -47.2%
5 | COc1ccc(NC(=O)c2cc(S(=O)(=O)NCCC3=CCCCC3)ccc2F)cc1 | active: -79.6%
6 | CN(C)CCCN1C(=O)c2cc3ccccc3cc2C1=O | inactive: 18.9%
7 | Cc1ccccc1OC1CCN(C(=O)C2CCC(=O)N(C3CCCC3)C2)CC1 (stereo not given) | inconclusive: -58.8%
8 | CCc1ccc(NC(=O)C2CCN(S(=O)(=O)c3c(C)noc3/C=C/c3ccco3)CC2)cc1 | inconclusive: -58.1%
9 | COc1cc(/C=C/C(=O)OCC(=O)N2CCCC2)ccc1OCC#N | inactive: -21.6%
10 | CCN(CC)c1ccc(C(=O)OCc2cc(=O)oc3cc(O)ccc23)cc1 | active: -104%
11 | CNC(=O)c1cc(OCC(F)(F)F)ccc1OCC(F)(F)F | inconclusive: -42.2%
12 | O=C1c2ccsc2SCCN1Cc1ccccc1 | inconclusive: -57.1%
13 | COc1ccc(-c2csc(Nc3cc(C)ccn3)n2)cc1C | inconclusive: -51.7%
14 | O=C(c1cc(COc2ccc(F)cc2Cl)on1)N1CCCC(OCc2cccnc2)C1 (stereo not given) | inconclusive: -40.9%
15 | CSc1ccc(CNC(=O)CN2C(=O)C3CCCCN3c3ccc(C(=O)N4CCCC4)cc32)cc1 (stereo not given) | inactive: -8.69%
16 | COc1ccc(CC(=O)Nc2nc(C(C)(C)C)cs2)cc1 | inconclusive: -43.4%
17 | O=C(Cn1nnc(-c2ccc(Cl)cc2)n1)NCCC1=CCCCC1 | inconclusive: -50.4%
18 | Cc1cccc(NCN2C(=O)C3C4C=CC(C4)C3C2=O)c1 (stereo not given) | inconclusive: -41.6%
19 | CC(=O)N=c1c(C#N)cc2c(=O)n3cccc(C)c3nc2n1CCCOC(C)C | inconclusive: -47.4%
20 | COc1ccc([N+](=O)[O-])cc1N(CC(O)CN1C(=O)NC(C)(C)C1=O)S(=O)(=O)c1ccc(C)cc1 (stereo not given) | inconclusive: -41.9%
21 | Cc1ccccc1NC(=O)Cn1c(=O)n(CCC(=O)NCc2ccc3c(c2)OCO3)c(=O)c2sccc21 | inactive: 17.1%
22 | Fc1ccc(-c2ccnc(=S)[nH]2)cc1 | inconclusive: -52.8%
23 | CC(C)CCNC(=O)C1C2C=CC3(CN(Cc4ccccc4Cl)C(=O)C13)O2 (stereo not given) | inconclusive: -47.2%
24 | CCCc1nc(SCC(=O)c2ccc(OC)cc2)c2ccccc2n1 | active: -83%
25 | Cc1ccc(OCC(=O)Nc2ccc3nc(SCC(=O)N4CCOCC4)sc3c2)cc1C | inactive: 30.9%
26 | CS(=O)(=O)c1nc(S(=O)(=O)c2ccc(Cl)cc2)c(N2CCN(CCO)CC2)s1 | active: -62.9%
27 | CCCCCCc1cc2cc(S(=O)(=O)c3ccc(F)c(Cl)c3)c(=O)oc2cc1O | active: -102%
28 | COc1ccc(-c2nnc(SCC(=O)c3ccc[nH]3)n2-c2ccccc2)cc1 | inactive: 40.4%

Row | SMILES | activity change, negative = inhibition
29 | O=C(CNC(=O)c1ccccc1F)NCc1cccnc1 | inactive: 8.99%
30 | O=C(Nc1cccc(C(=O)N2CCCC2)c1)C1CCCCC1 | inactive: -16.4%
31 | COc1ccc(CCC(=O)N2CCN(c3cccc(C)c3C)CC2)cc1 | active: -79.6%
32 | COc1ccccc1NC(=O)Cn1nnc(C(=O)NCCc2ccccc2)c1N | inconclusive: -44.1%
33 | C[C@H]1CN([C@@H](C)CO)C(=O)c2cc(C#Cc3ccccn3)cnc2O[C@@H]1CN(C)Cc1ccccc1 | inactive: 0.087%
34 | COc1cc2nc(N3CCN(C(=O)OCc4ccccc4)[C@H](C(=O)NC(C)(C)C)C3)nc(N)c2cc1OC | inconclusive: -54%
35 | Cc1cc(C)c(S(=O)(=O)NCc2csc(-c3ccccc3)n2)c(C)c1 | inconclusive: -47.2%
36 | CSc1nc(C2CC2)cc(-c2cccs2)c1C#N | active: -102%
37 | CC[C@H]1Nc2ccc(OC)cc2[C@@H](NS(C)(=O)=O)[C@@H]1C | inactive: 1.13%
38 | CCOC(=O)C(=Cc1cn(C)c2ccc(S(=O)(=O)N(C)C)cc12)C(=O)OCC | inactive: 24.4%
39 | COc1cc(C(=O)NCC2CCCO2)ccc1OCc1ccc(Cl)cc1 (stereo not given) | inconclusive: -41.5%
40 | COc1ccc(Cl)cc1Cn1c(C)c(C(=O)NCc2ccc3c(c2)OCCO3)sc1=O | active: -71.9%
41 | CN1/C(=C\C(=S)Nc2ccccc2)C(C)(C)c2ccccc21 | active: -70.9%
42 | CCOC(=O)CSc1nc2ccc(N3CCOCC3)cc2c(=O)n1Cc1ccccc1 | inactive: -5.63%
43 | O=C(NCCc1ccc(Cl)cc1)c1ccc2c(c1)N(Cc1c(F)cccc1Cl)C(=O)CS2 | inconclusive: -56.7%
44 | COc1cc(C(=O)Nc2ccc(C(=O)O)cc2)ccc1OC(C)=O | inconclusive: -45.9%
45 | CCOC(=O)C1CCN(c2c(NCc3ccc(C(=O)NCCOC)cc3)c(=O)c2=O)CC1 | inconclusive: -40.8%
46 | Fc1ccc(COc2ccc(Br)cc2CNCC2CCCO2)cc1 (stereo not given) | inconclusive: -48.4%
47 | COc1cc(Cl)c(NC2=CC(=O)C(=O)c3ccccc32)c(OC)c1 | active: -97%
48 | CCC(C)(C)C1CCC2(CC1)NC(=O)N(CC(=O)N(C)Cc1ccc3c(c1)OCCO3)C2=O (stereo not given) | inconclusive: -47.5%
49 | COC(=O)c1ccc(-c2noc(CN(Cc3ccccn3)CC3CCCO3)n2)cc1 (stereo not given) | inconclusive: -52.1%
50 | O=C(c1ccc2c3c(cccc13)CC2)C1CCCN(Cc2ccccn2)C1 (stereo not given) | inconclusive: -49.4%
51 | Cc1ccc(C(c2c(C)nn(-c3ccccc3)c2N)c2c(C)nn(-c3ccccc3)c2N)cc1 | inactive: 8.43%
52 | N#Cc1nc(-c2ccc(F)cc2)oc1N1CCCC1 | inconclusive: -42.2%
53 | O=C(CC1C(=O)NCCN1Cc1ccccc1C(F)(F)F)NC1CCC1 (stereo not given) | inconclusive: -43.3%
54 | Cc1c(NC(=O)c2cc3c(s2)-c2ccccc2OC3)cccc1[N+](=O)[O-] | inconclusive: -41%
55 | Cc1ccc(C2C=C(c3ccc(F)cc3)Nc3nc(CCCO)nn32)cc1 (stereo not given) | inactive: -10%

Another view of eleven compounds above:
Row,SMILES,"activity change, negative = inhibition"
32,COc1ccccc1NC(=O)Cn1nnc(C(=O)NCCc2ccccc2)c1N,inconclusive: -44.1%
33,C[C@H]1CN([C@@H](C)CO)C(=O)c2cc(C#Cc3ccccn3)cnc2O[C@@H]1CN(C)Cc1ccccc1,inactive: 0.087%
34,COc1cc2nc(N3CCN(C(=O)OCc4ccccc4)[C@H](C(=O)NC(C)(C)C)C3)nc(N)c2cc1OC,inconclusive: -54%
35,Cc1cc(C)c(S(=O)(=O)NCc2csc(-c3ccccc3)n2)c(C)c1,inconclusive: -47.2%
36,CSc1nc(C2CC2)cc(-c2cccs2)c1C#N,active: -102%
37,CC[C@H]1Nc2ccc(OC)cc2[C@@H](NS(C)(=O)=O)[C@@H]1C,inactive: 1.13%
38,CCOC(=O)C(=Cc1cn(C)c2ccc(S(=O)(=O)N(C)C)cc12)C(=O)OCC,inactive: 24.4%
39,COc1cc(C(=O)NCC2CCCO2)ccc1OCc1ccc(Cl)cc1 (stereo not given),inconclusive: -41.5%
40,COc1ccc(Cl)cc1Cn1c(C)c(C(=O)NCc2ccc3c(c2)OCCO3)sc1=O,active: -71.9%
41,CN1/C(=C\C(=S)Nc2ccccc2)C(C)(C)c2ccccc21,active: -70.9%
42,CCOC(=O)CSc1nc2ccc(N3CCOCC3)cc2c(=O)n1Cc1ccccc1,inactive: -5.63%
